Read-outs that look alike come from different tables or passages of the source. Results are given in words; binding and its absence hold for the method and conditions named. Binding seen in cells or lysates may run through a third protein. A yes stands for co-enrichment or nearness to the bait. Other partners may have been found.

Chains of the proteins cited; added tags and fusions are not shown. Lines headed by an entry give the natural chain unless they say otherwise; changes in a name come on top.
UniProt O53943: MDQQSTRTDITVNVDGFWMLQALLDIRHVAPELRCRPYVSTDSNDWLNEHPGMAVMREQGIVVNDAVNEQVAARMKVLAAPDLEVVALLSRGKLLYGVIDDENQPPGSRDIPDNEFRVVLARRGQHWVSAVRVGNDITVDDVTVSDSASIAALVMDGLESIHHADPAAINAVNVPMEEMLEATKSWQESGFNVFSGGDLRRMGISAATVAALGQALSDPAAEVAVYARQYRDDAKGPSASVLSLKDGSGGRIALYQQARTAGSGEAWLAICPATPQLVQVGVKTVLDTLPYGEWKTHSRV
UniProt B2HK52: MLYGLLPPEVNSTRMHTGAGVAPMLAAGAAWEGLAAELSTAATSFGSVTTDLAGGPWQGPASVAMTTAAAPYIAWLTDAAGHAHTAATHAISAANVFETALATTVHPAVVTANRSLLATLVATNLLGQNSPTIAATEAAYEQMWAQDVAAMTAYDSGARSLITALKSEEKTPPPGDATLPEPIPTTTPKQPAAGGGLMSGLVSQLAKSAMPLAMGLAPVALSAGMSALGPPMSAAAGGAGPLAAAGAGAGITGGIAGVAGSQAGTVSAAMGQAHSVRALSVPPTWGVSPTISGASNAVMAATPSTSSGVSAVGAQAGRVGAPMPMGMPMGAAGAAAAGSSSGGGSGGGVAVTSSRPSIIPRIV
UniProt B2HPW7: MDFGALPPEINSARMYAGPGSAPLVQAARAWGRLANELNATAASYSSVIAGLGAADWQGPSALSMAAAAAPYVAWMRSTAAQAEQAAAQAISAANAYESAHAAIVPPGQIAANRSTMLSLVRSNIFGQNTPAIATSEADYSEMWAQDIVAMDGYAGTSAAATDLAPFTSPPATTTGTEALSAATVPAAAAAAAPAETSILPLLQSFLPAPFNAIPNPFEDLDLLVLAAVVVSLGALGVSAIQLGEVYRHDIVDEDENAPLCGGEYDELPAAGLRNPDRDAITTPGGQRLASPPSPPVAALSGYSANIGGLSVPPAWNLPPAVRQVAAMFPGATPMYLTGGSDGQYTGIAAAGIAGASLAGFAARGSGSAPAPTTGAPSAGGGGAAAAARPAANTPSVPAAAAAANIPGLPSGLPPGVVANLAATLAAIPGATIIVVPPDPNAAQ
UniProt B2HKX8: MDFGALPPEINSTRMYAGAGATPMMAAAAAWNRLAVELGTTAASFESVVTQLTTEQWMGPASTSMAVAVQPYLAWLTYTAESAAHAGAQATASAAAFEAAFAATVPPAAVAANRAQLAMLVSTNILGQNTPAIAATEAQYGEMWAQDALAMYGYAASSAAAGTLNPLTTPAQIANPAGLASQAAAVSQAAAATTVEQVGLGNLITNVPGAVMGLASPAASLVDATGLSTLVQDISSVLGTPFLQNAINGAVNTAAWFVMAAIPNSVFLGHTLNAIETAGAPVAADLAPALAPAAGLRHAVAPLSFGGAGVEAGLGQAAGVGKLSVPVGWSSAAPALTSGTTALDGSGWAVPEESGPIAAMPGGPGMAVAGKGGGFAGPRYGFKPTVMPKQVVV
UniProt B2HSV3: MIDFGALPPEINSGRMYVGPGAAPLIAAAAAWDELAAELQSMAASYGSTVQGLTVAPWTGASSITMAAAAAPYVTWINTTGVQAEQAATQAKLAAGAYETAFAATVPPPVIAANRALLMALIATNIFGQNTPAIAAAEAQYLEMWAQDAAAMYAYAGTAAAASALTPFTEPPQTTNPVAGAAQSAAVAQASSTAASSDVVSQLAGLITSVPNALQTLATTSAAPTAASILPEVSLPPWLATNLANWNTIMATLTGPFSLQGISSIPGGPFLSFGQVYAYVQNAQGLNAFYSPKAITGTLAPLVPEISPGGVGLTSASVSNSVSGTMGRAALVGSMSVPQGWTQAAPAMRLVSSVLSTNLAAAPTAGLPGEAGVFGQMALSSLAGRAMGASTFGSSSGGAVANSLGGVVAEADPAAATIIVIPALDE

Here are results for 5 molecules from PMC11395111.

Test [1] concerns the target GST-EspG5 (UniProt O53943). Put plainly: affinity purification with mass spectrometry; […] (250 mM NaCl, 20 mM HEPES, 2 mM DTT); […]; only the target purified.
The target in test [2] is GST-EspG5 (UniProt O53943). The description is as above. This is another data set of the same source.

MMAR_3578 (PPE) (from UniProt B2HK52): in test [1], the binding result is on record as “binds”.

Regarding MMAR_0685 (PPE) (from UniProt B2HPW7), the binding result in test [1] is recorded as “binds”.

On to “MMAR_1950 (PPE15_1) (from UniProt B2HKX8)”, for which the binding entry in test [1] is given as “binds”.

For the molecule “PPE32 (M. marinum, MMAR_2684) (from UniProt B2HSV3)”, the binding entry in test [1] was “binds”.

B1: PPE31 (M. marinum, MMAR_2683) (protein, UniProt B2HSV2 1-386)
chain: MTASLDFATLPPEINSARMYSGPGSAPMLAAASAWKGLAAELRVTVLSYDSVLRALTGEEWYGPASASMAAAAAPYVAWMSTTAAQAEESAVQAAAAAAAYEAAFSATVAPTVITANRAQLMVLVATNVLGQNTPAIAAVEAQYCEMWAQDAMAMYGYAGSSAAATRLSEFLEPQHNTNPAGLLAQQSTLAQLMSAVPNVLQGLASSNTSASAPSGLLSTLLSGNGQSWLATLWSEFGPNANIWNTIASTGFLLPSNMVTPFLGMLGTAAVADAAEDALGTTGSGALGGALSAPLGSVGGQAGLAAAGNAAIVGKLSVPPSWTGAAPLASPLGSALGGTPMVAPPPTAAAGMPGVPFGNMAGQPFGRALPQYGFRPTFVARPPAAG
Regarding B1, the binding result in test [2] was “binds”.
